Results: article PMC12085317
Results are given in words; binding and its absence hold for the method and conditions named. In cells and extracts the contact can be indirect. Some binding calls cover weakened binding; strength is not graded here.

Target: T1, CSTF2 (human (endogenous in MCF7)) (UniProt P33240)
T1 sequence: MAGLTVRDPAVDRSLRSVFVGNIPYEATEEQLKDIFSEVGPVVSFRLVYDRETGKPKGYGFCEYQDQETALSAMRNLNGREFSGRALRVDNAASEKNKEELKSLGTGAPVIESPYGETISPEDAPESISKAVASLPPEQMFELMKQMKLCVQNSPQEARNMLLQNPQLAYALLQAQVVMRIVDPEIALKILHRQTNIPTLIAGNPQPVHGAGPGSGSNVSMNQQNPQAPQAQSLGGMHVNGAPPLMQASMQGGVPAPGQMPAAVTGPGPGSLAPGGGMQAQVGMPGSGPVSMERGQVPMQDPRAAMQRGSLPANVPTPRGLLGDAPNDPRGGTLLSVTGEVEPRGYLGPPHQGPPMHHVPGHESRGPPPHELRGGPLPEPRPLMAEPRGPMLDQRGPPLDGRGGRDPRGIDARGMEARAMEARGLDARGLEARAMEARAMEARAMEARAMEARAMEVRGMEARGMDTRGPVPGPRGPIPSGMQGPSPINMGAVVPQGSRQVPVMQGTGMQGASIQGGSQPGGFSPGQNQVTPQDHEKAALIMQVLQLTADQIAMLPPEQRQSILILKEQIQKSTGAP
Test: co-IP; untransfected MCF7 cells, nuclear extracts (500 µg), immunoprecipitation with CSTF2 antibody or isotype-matched IgG on Protein A/G magnetic beads, immunoblot with CSTF2 and ADAR1 antibodies

binding: binds
B1: ADAR1 (protein, UniProt P55265 1-1226)
chain: MNPRQGYSLSGYYTHPFQGYEHRQLRYQQPGPGSSPSSFLLKQIEFLKGQLPEAPVIGKQTPSLPPSLPGLRPRFPVLLASSTRGRQVDIRGVPRGVHLRSQGLQRGFQHPSPRGRSLPQRGVDCLSSHFQELSIYQDQEQRILKFLEELGEGKATTAHDLSGKLGTPKKEINRVLYSLAKKGKLQKEAGTPPLWKIAVSTQAWNQHSGVVRPDGHSQGAPNSDPSLEPEDRNSTSVSEDLLEPFIAVSAQAWNQHSGVVRPDSHSQGSPNSDPGLEPEDSNSTSALEDPLEFLDMAEIKEKICDYLFNVSDSSALNLAKNIGLTKARDINAVLIDMERQGDVYRQGTTPPIWHLTDKKRERMQIKRNTNSVPETAPAAIPETKRNAEFLTCNIPTSNASNNMVTTEKVENGQEPVIKLENRQEARPEPARLKPPVHYNGPSKAGYVDFENGQWATDDIPDDLNSIRAAPGEFRAIMEMPSFYSHGLPRCSPYKKLTECQLKNPISGLLEYAQFASQTCEFNMIEQSGPPHEPRFKFQVVINGREFPPAEAGSKKVAKQDAAMKAMTILLEEAKAKDSGKSEESSHYSTEKESEKTAESQTPTPSATSFFSGKSPVTTLLECMHKLGNSCEFRLLSKEGPAHEPKFQYCVAVGAQTFPSVSAPSKKVAKQMAAEEAMKALHGEATNSMASDNQPEGMISESLDNLESMMPNKVRKIGELVRYLNTNPVGGLLEYARSHGFAAEFKLVDQSGPPHEPKFVYQAKVGGRWFPAVCAHSKKQGKQEAADAALRVLIGENEKAERMGFTEVTPVTGASLRRTMLLLSRSPEAQPKTLPLTGSTFHDQIAMLSHRCFNTLTNSFQPSLLGRKILAAIIMKKDSEDMGVVVSLGTGNRCVKGDSLSLKGETVNDCHAEIISRRGFIRFLYSELMKYNSQTAKDSIFEPAKGGEKLQIKKTVSFHLYISTAPCGDGALFDKSCSDRAMESTESRHYPVFENPKQGKLRTKVENGEGTIPVESSDIVPTWDGIRLGERLRTMSCSDKILRWNVLGLQGALLTHFLQPIYLKSVTLGYLFSQGHLTRAICCRVTRDGSAFEDGLRHPFIVNHPKVGRVSIYDSKRQSGKTKETSVNWCLADGYDLEILDGTRGTVDGPRNELSRVSKKNIFLLFKKLCSFRYRRDLLRLSYGEAKKAARDYETAKNYFKKGLKDMGYGNWISKPQEEKNFYLCPV
